The text below walks through data of article PMC7205486.

The chains behind the UniProt entries cited, without tags or fusion partners.
UniProt Q7WZ07, entry or part of it: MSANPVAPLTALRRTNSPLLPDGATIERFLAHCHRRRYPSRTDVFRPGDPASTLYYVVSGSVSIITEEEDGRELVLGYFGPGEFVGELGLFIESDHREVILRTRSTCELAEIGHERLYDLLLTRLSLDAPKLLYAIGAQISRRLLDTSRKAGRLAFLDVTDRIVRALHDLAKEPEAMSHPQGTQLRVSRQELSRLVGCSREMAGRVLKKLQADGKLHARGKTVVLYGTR

The data set addresses Clp (GST-Clp) (Lysobacter enzymogenes OH11) (UniProt Q7WZ07). Briefly: EMSA. Conditions: Clp 0, 1, 2, 4, 8 uM, 50 ng probe; 10 mM Tris pH 7.5, 50 mM KCl, 1 mM DTT, 0.4% glycerol, 20 ul, 28 C 25-30 min; 5% native acrylamide gel, 0.5x TBE, 4 C; recombinant protein; residues 1-229; protein details: GST; label: none (SYBR green I stain); probe letters rebuilt from the primers and the genome. (In general: In EMSA bound probe runs differently from free probe, usually more slowly.)

For at least one entry, the source does not settle the construct or the ends of the probe.

Turning to “TGCTCTAGACACGGACGGTTCAAACTCATCGCGATCCCCTCTTTAATCGCTCGTCGATTTTCTGTCCGCTTGCCGCGAAGTGCGCCGGCGTACGGTGTGTTTTCTCGATTGGAGCATAGGCTCTAGCGGGTGGCAAGGCGGTGCCCGGCGGCGTTGTGGCGAGCGCCGCGGACCTGTCAGGATCGGCGGCAGCCGGGCTTGGCTCCGGCACGGACCGCGCGGCGCCGCGCCGCCGGCCGAGTGGGCGAACGGTCGTGCGAATACGTCCGTTGCAGCGTTCAGAAGGGGAAATCCGCCATGTTCACACTGTTCGCGATCGACCGGACGCAGCCGCTACGGAGCGCCGCCCGCGCGGGCGCGCGCATGGGCTGGCTGGCGGCCGCGCTGCTGGCCCTGGCCGCCTGCGGCGGCGGCTCGCCGGAGCAGCGCCTGCGCGCGTCGATGACCCAGTTGCAGGATGCTCGAGCGG (double strand) [pLe rpfB1 promoter]”, the binding result is given as “binds”.

For the sequence “TGCTCTAGAAGCAAGCCGGCGCGCTCCACCGGCAGCCCGCGGGCGGTCCGGCCGCCTTGCCCAGCCGGGCCGGAAGCCAAGCGGGCGCGATCCATTCTTTGACCGCGATTGCGGTATGGAGCGTGCGTGCGCAGACGCTGCGCGCTCAGAAATGCGCGTCGAGGAACGCCGCCGCCGCATCCGACAGGCCGACGACCTTGTCGGTGGCCTGGCGATAGAGCTTGAAGTTGAGTTCGGTCTGCGGCCGGCCGTCGTCCCACTGCGCATGCGGCTTGAGCTCGGCGCGGCCGAGCGGCCGCCGCGCGGTCGCGGTGCGGCGGATGCGCACGCTCACCCGCGGTGTCTGCCGCGCCACGCCCGGCCGCGGCGCCACCGCCTCGGCCGCGACCACGGTGCCGCGCGCGAACAGGCCGGCGCCGCCGGCGTTCTCGCTGGCGAACAGATAGACCGTATCGCCGGCGGCGATGCGCTTGCCGCCGTACATGGTCTTCTGCCTCGAGCGG (double strand) [pLe rpfB2 promoter]”, the binding result is on record as “binds”.
